Test results as given in publication PMC12261228 (ACS Pharmacology & Translational Science, 2025).

Tested on: U2OS cells
Assay: Live-cell imaging of intracellular distribution
Assay type: cell-based, human
Conditions: 1 μM, 5 min, 37 °C

C#CCCCC1=C2C(C)=CC(C)=[N+]2[B-](F)(F)n2c(C)cc(C)c21 [B9]
distribution in living cells (in words): stained cells only weakly

COc1cc2c(c(OC)c1OC)-c1ccc(OC)c(=O)cc1[C@@H](n1cc(CCCC3=C4C(C)=CC(C)=[N+]4[B-](F)(F)n4c(C)cc(C)c43)nn1)CC2 [CB4]
distribution in living cells (in words): confirmed the association of CB4 with these organelles
